PubChem BioAssay AID1259254 | NCATS | 2017
Test: 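Gene knock-downs that lead to re-replication, shown by excess G2 DNA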 (primary screen). System: human HCT116 colorectal cancer cells. Reagents: single siRNA against human genes. Time to read-out: 3 days. Detection: 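Nuclei stained with Hoechst and imaged; cell-cycle phase assigned by DNA content; G2 share scaled per plate, non-targeting siRNA 0%, GMNN siRNA 100%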. Direction: G2 robust z-score and G2 cells, % of GMNN control: higher = more G2 cells, more excess DNA replication. Rule for the call: 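An siRNA counts as active if its G2 robust z-score lies at least 5 MADs above the screen median; here such calls match roughly 38% of GMNN control or more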.
This is an unselected part of about 59,000 reagents tested. About 1,550 of all reagents (2.6%) count as active. 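G2 share is only a proxy for re-replication; each gene was hit by three separate siRNAs, and active genes were retested.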 The numbers tell different reagents against one gene apart. Not all columns of the deposit are shown. Reagent sequences are not shown. The record does not give: the amount of reagent.

LIMK2 #1: G2 robust z-score = -0.892; G2 cells, % of GMNN control = -3.31; Call = inactive
LIMK2 #2: G2 robust z-score = -1.34; G2 cells, % of GMNN control = -6.49; Call = inactive
LIMK2 #3: G2 robust z-score = 2.06; G2 cells, % of GMNN control = 17.5; Call = inactive
SCUBE1 #1: G2 robust z-score = -1.8; G2 cells, % of GMNN control = -9.7; Call = inactive
SCUBE1 #2: G2 robust z-score = 0.509; G2 cells, % of GMNN control = 6.55; Call = inactive
SCUBE1 #3: G2 robust z-score = 0.477; G2 cells, % of GMNN control = 6.33; Call = inactive
GH1 #1: G2 robust z-score = 8.57; G2 cells, % of GMNN control = 63.3; Call = active
GH1 #2: G2 robust z-score = 2.87; G2 cells, % of GMNN control = 23.2; Call = inactive
GH1 #3: G2 robust z-score = -0.803; G2 cells, % of GMNN control = -2.68; Call = inactive
AWAT2 #1: G2 robust z-score = 3.48; G2 cells, % of GMNN control = 27.4; Call = inactive
AWAT2 #2: G2 robust z-score = -0.548; G2 cells, % of GMNN control = -0.886; Call = inactive
AWAT2 #3: G2 robust z-score = -0.231; G2 cells, % of GMNN control = 1.34; Call = inactive
RCC2 #1: G2 robust z-score = -0.585; G2 cells, % of GMNN control = -1.15; Call = inactive
RCC2 #2: G2 robust z-score = -1.08; G2 cells, % of GMNN control = -4.61; Call = inactive
RCC2 #3: G2 robust z-score = -0.317; G2 cells, % of GMNN control = 0.737; Call = inactive
ZNF892 #1: G2 robust z-score = -0.43; G2 cells, % of GMNN control = -0.061; Call = inactive
ZNF892 #2: G2 robust z-score = 0.288; G2 cells, % of GMNN control = 4.99; Call = inactive
ZNF892 #3: G2 robust z-score = -0.335; G2 cells, % of GMNN control = 0.608; Call = inactive
ANAPC1 #1: G2 robust z-score = 0.358; G2 cells, % of GMNN control = 5.48; Call = inactive
ANAPC1 #2: G2 robust z-score = 1.17; G2 cells, % of GMNN control = 11.2; Call = inactive
ANAPC1 #3: G2 robust z-score = 6.02; G2 cells, % of GMNN control = 45.3; Call = active
POU3F4 #1: G2 robust z-score = -0.85; G2 cells, % of GMNN control = -3.01; Call = inactive
POU3F4 #2: G2 robust z-score = 0.102; G2 cells, % of GMNN control = 3.68; Call = inactive
POU3F4 #3: G2 robust z-score = -0.154; G2 cells, % of GMNN control = 1.88; Call = inactive

Active calls (from the list above):
GH1 #1: G2 robust z-score = 8.57; G2 cells, % of GMNN control = 63.3; Call = active
ANAPC1 #3: G2 robust z-score = 6.02; G2 cells, % of GMNN control = 45.3; Call = active
